Data on two molecules can be found in CN116675768A.

No constants are given. Whether binding was seen depends on the method and setting. Some binding calls cover weakened binding; strength is not graded here.

In the assay the target is T1, 重组人NEFL蛋白 (human) (UniProt P07196).
T1 sequence: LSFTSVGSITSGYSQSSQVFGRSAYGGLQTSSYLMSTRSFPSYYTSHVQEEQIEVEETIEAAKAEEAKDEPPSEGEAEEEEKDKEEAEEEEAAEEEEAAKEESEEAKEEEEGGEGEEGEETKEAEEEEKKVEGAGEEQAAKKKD
The assay is described as follows: double-antibody sandwich ELISA; 1H8 as capture, 2G10-biotin as detection, protein at 2000 pg/mL. Background: An ELISA detects its analyte on a solid surface through an enzyme-linked reagent.

B1: 兔单克隆抗体2G10 (antibody, V domains shown)
VH: QSLEESGGRLVTPGTRLTLTCTVSGFSLGRYAMGWVRQAPGKGLEWIGIINSYGTTYYASWAKGRFTISKTSTTVDLKITSPTTEDTATYFCARDGYEDYGDYYNAFDPWGPGTLVTVSS
VL: DVVMTQTPASVSEPVGGTVTIKCQASQSIGVTLAWYQQKPGQPPKLLIYKASNLASGVSSRFKGSRSGTEYTLTISDLECADAATYYCQCTWYGPSFVGAFGGGTEVVVKG
For the molecule B1, the binding result is recorded as “binds”.

B2: 兔单克隆抗体1H8 (antibody, V domains shown)
VH: QSLEESGGRLVTPGTPLTLTCAVSGIDLSRYGIDWVRQAPGKGLEWIGTVSAGGDSWYASWAKGRFTISKTSSTTVDLEVTSPTTEDTATYFCAKGATLNLWGQGTLVTVSS
VL: DPVLTQTPSSTSAAVGGTVTINCQSSQNVYGNNWLAWYQKKPGQSPKLLIISASSLPSGVPSRFKGSGSGTQFTLTISDLECDDAATYYCAGGYSGYIYTFGGGTEVVVKG
Turning to B2, the binding entry is listed as “binds”.
